PubChem BioAssay AID1259308 | NCATS – 2017
Screen: 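Candidate targets for better recombinant protein yield in mammalian cells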 (primary screen). Cells: human HEK293 embryonic kidney cells stably expressing firefly luciferase (HEK-CMV-Luc2-Hygro). Reagent: single siRNA against human genes, 0.8 pmol siRNA per well. Time to read-out: 72 h. Measurement: 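Luciferase light (ONE-Glo) measured on one replicate plate set and viability (CellTiter-Glo) on the other, scaled to a negative control siRNA, with robust z-scores and luciferase per cell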. Reading the numbers: total luciferase, z-score: higher = more reporter protein produced. Rule for the call: 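Active when the median/MAD z-score for overall luciferase is greater than 3; a gene was taken forward for validation with new siRNAs if at least two of its three siRNAs passed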. Meaning of the calls: active = raised luciferase; inactive = no rise.
In all, the deposit lists about 59,000 reagents; this is an unselected part. Of all reagents, about 1,510 (2.6%) got an active call. 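Calls use total luciferase alone and ignore viability, so some active siRNAs may act by altering cell number.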 The numbers tell different reagents against one gene apart. Not all columns of the deposit are shown. Reagent sequences are not shown.

{"gene knocked down": "EGFLAM (EGF like, fibronectin type III and laminin G domains)", "reagent no.": 1, "total luciferase, z-score": -0.477, "call": "inactive"}
{"gene knocked down": "EGFLAM (EGF like, fibronectin type III and laminin G domains)", "reagent no.": 2, "total luciferase, z-score": -1.34, "call": "inactive"}
{"gene knocked down": "EGFLAM (EGF like, fibronectin type III and laminin G domains)", "reagent no.": 3, "total luciferase, z-score": -0.855, "call": "inactive"}
{"gene knocked down": "CD3E (CD3 epsilon subunit of T-cell receptor complex)", "reagent no.": 1, "total luciferase, z-score": 2.28, "call": "inactive"}
{"gene knocked down": "CD3E (CD3 epsilon subunit of T-cell receptor complex)", "reagent no.": 2, "total luciferase, z-score": 0.0704, "call": "inactive"}
{"gene knocked down": "CD3E (CD3 epsilon subunit of T-cell receptor complex)", "reagent no.": 3, "total luciferase, z-score": 0.812, "call": "inactive"}
{"gene knocked down": "CLDN18 (claudin 18)", "reagent no.": 1, "total luciferase, z-score": -1.3, "call": "inactive"}
{"gene knocked down": "CLDN18 (claudin 18)", "reagent no.": 2, "total luciferase, z-score": 2.04, "call": "inactive"}
{"gene knocked down": "CLDN18 (claudin 18)", "reagent no.": 3, "total luciferase, z-score": 0.854, "call": "inactive"}
{"gene knocked down": "HSD17B2 (hydroxysteroid 17-beta dehydrogenase 2)", "reagent no.": 1, "total luciferase, z-score": -0.0345, "call": "inactive"}
{"gene knocked down": "HSD17B2 (hydroxysteroid 17-beta dehydrogenase 2)", "reagent no.": 2, "total luciferase, z-score": 0.757, "call": "inactive"}
{"gene knocked down": "HSD17B2 (hydroxysteroid 17-beta dehydrogenase 2)", "reagent no.": 3, "total luciferase, z-score": 0.286, "call": "inactive"}
{"gene knocked down": "SPMIP4 (sperm microtubule inner protein 4)", "reagent no.": 1, "total luciferase, z-score": -0.873, "call": "inactive"}
{"gene knocked down": "SPMIP4 (sperm microtubule inner protein 4)", "reagent no.": 2, "total luciferase, z-score": 0.276, "call": "inactive"}
{"gene knocked down": "SPMIP4 (sperm microtubule inner protein 4)", "reagent no.": 3, "total luciferase, z-score": 3.5, "call": "active"}
{"gene knocked down": "SH3TC2-DT (SH3TC2 divergent transcript)", "reagent no.": 1, "total luciferase, z-score": 0.88, "call": "inactive"}
{"gene knocked down": "SH3TC2-DT (SH3TC2 divergent transcript)", "reagent no.": 2, "total luciferase, z-score": 0.228, "call": "inactive"}
{"gene knocked down": "SH3TC2-DT (SH3TC2 divergent transcript)", "reagent no.": 3, "total luciferase, z-score": 0.779, "call": "inactive"}
{"gene knocked down": "SH3TC2-DT (SH3TC2 divergent transcript)", "reagent no.": 4, "total luciferase, z-score": 0.184, "call": "inactive"}
{"gene knocked down": "SH3TC2-DT (SH3TC2 divergent transcript)", "reagent no.": 5, "total luciferase, z-score": -0.356, "call": "inactive"}
{"gene knocked down": "SH3TC2-DT (SH3TC2 divergent transcript)", "reagent no.": 6, "total luciferase, z-score": -0.523, "call": "inactive"}
{"gene knocked down": "FBXO36 (F-box protein 36)", "reagent no.": 1, "total luciferase, z-score": -0.941, "call": "inactive"}
{"gene knocked down": "FBXO36 (F-box protein 36)", "reagent no.": 2, "total luciferase, z-score": 1.5, "call": "inactive"}
{"gene knocked down": "FBXO36 (F-box protein 36)", "reagent no.": 3, "total luciferase, z-score": 1.31, "call": "inactive"}
{"gene knocked down": "DNAH12 (dynein axonemal heavy chain 12)", "reagent no.": 1, "total luciferase, z-score": 0.686, "call": "inactive"}
{"gene knocked down": "DNAH12 (dynein axonemal heavy chain 12)", "reagent no.": 2, "total luciferase, z-score": 0.332, "call": "inactive"}
{"gene knocked down": "DNAH12 (dynein axonemal heavy chain 12)", "reagent no.": 3, "total luciferase, z-score": -1.59, "call": "inactive"}
{"gene knocked down": "DNAH12 (dynein axonemal heavy chain 12)", "reagent no.": 4, "total luciferase, z-score": -0.139, "call": "inactive"}
{"gene knocked down": "DNAH12 (dynein axonemal heavy chain 12)", "reagent no.": 5, "total luciferase, z-score": -0.825, "call": "inactive"}
{"gene knocked down": "DNAH12 (dynein axonemal heavy chain 12)", "reagent no.": 6, "total luciferase, z-score": 2.06, "call": "inactive"}
{"gene knocked down": "S100PBP (S100P binding protein)", "reagent no.": 1, "total luciferase, z-score": -2.06, "call": "inactive"}
{"gene knocked down": "S100PBP (S100P binding protein)", "reagent no.": 2, "total luciferase, z-score": -0.874, "call": "inactive"}
{"gene knocked down": "S100PBP (S100P binding protein)", "reagent no.": 3, "total luciferase, z-score": 1.69, "call": "inactive"}

2 entries from above, set out differently.
gene knocked down | reagent no. | total luciferase, z-score | call
FBXO36 (F-box protein 36) | 1 | -0.941 | inactive
FBXO36 (F-box protein 36) | 2 | 1.5 | inactive
